# Inconclusive means that the source gave no clear call. Such entries were picked first, then a sample of the others. For part of these data: Where the call is inconclusive, the potency comes from a doubtful curve fit. Calls of active or inactive are those of the source. Unless noted, calls come from the whole dose curve.
# Amino acid sequences for entries named in this document (tags omitted). A change or cut given only in a name is not applied to a line headed by its entry.
# UniProt P28223, whole entry, looked up: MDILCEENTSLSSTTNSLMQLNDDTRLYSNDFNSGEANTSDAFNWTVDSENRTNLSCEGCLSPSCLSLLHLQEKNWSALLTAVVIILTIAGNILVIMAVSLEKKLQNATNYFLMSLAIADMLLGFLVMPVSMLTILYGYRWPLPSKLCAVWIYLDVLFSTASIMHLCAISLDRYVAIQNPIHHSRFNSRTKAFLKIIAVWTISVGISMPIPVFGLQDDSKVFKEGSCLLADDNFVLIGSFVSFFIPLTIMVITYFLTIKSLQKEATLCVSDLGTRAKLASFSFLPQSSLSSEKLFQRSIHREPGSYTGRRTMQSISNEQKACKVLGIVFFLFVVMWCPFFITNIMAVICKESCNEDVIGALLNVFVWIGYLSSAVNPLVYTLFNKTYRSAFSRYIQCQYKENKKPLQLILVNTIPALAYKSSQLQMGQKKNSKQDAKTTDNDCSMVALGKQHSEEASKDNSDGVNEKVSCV
# UniProt P14416, whole entry, looked up: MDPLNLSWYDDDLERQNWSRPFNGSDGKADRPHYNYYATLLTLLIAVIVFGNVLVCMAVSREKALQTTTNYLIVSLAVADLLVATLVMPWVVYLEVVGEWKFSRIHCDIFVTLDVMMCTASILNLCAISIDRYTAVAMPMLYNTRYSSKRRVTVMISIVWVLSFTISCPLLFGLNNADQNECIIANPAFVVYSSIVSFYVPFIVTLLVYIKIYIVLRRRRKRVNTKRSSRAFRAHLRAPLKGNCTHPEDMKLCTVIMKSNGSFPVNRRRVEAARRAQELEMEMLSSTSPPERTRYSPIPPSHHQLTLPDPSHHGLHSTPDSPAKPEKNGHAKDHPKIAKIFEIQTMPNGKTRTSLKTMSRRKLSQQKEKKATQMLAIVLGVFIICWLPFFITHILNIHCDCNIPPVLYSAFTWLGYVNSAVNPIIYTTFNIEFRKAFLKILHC
# UniProt P11229: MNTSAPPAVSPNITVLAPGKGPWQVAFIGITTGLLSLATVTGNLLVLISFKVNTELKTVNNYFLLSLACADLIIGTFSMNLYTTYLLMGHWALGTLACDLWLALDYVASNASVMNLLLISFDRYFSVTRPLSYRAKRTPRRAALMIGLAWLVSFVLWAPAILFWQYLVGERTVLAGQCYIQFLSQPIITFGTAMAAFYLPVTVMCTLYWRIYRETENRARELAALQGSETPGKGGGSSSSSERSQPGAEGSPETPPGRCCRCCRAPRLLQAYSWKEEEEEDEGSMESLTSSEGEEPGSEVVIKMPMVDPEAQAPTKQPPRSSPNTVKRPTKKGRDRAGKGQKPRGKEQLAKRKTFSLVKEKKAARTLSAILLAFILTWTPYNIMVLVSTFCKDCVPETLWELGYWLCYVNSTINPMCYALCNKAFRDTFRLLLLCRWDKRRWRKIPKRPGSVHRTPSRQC
# How the values were obtained:
# [1] = p53 small molecule agonists, cell-based qHTS assay: qHTS cell viability counter screen (AID 1963581); note: nearly all actives have a fitted effect of over 45% in size
# Summary of the method: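 Counter screen read by CellTiter-Glo luminescence (ATP content, 30 min at room temperature), run in the same wells as the beta-lactamase reporter read. HCT-116 p53RE-bla cells saw compounds for 16 h at 37 C.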
# [2] = p53 small molecule agonists, cell-based qHTS assay (AID 1963582; active = well fitted activation curve with a large enough effect in the signal ratio in the repeat runs, not every such curve was filed as active; inconclusive = weak or mixed curves; the % refers to the signal ratio; for activation: % is set by controls: 0 for no effect and ±100 for the full control effect); settings: HCT-116 p53RE-bla reporter, beta-lactamase FRET ratio, 16 h; activation: at 66 µM (top of the series) unless noted
# Summary of the method: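 Read-out is beta-lactamase FRET fluorescence after 2 h at room temperature with LiveBLAzer B/G substrate. p53 response element-bla cells were treated 16 h at 37 C with compounds in DMSO, added 5 h after seeding.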
# [3] = biological target: 5-hydroxytryptamine receptor 2A (Homo sapiens) (UniProt P28223); assay: 5-hydroxytryptamine receptor 2A (HTR2A) small molecule antagonists, cell-based qHTS assay (AID 1963586); note: nearly all actives have a fitted effect of over 45% in size
# Summary of the method: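 CHO cells stably expressing human HTR2A were plated for 18 h at 37 C, then loaded with calcium dye for 1 h. Compounds were preincubated 5 min at room temperature before DOI (4 nM solution) was added. Kinetic fluorescence was read for 3 min.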
# [4] = biological target: 5-hydroxytryptamine receptor 2A (Homo sapiens) (UniProt P28223); assay: 5-hydroxytryptamine receptor 2A (HTR2A) small molecule agonists, cell-based qHTS assay (AID 1963587); note: nearly all actives have a fitted effect of over 30% in size
# Summary of the method: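 HTR2A-CHO cells, plated 18 h at 37 C/5% CO2, dye-loaded 1 h at 37 C; compounds in DMSO added by pin tool (agonist mode). Intracellular calcium flux read as kinetic fluorescence on FDSS over 2 min at 1 s intervals.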
# [5] = biological target: Beta-2 adrenergic receptor (Homo sapiens) (UniProt P07550); assay: Adrenergic beta2 receptor (ADRB2) small molecule antagonists, cell-based qHTS assay (AID 1963592); settings: CHO-ADRB2 cells, isoproterenol-stimulated cAMP HTRF ratio, 0.5 h; activity change, negative = inhibition: at 92.4 µM (top of the series) unless noted; note: nearly all actives have a fitted effect of over 50% in size
# Summary of the method: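 Assay format: CHO-ADRB2 cells, 18-20hr seeding at 37C/5% CO2, then compound plus 1nM isoproterenol agonist mix for 0.5hr RT. Homogeneous time-resolved fluorescence cAMP detection after 1hr, expressed as 665/615 nm ratio.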
# [6] = biological target: Beta-2 adrenergic receptor (Homo sapiens) (UniProt P07550); assay: Adrenergic beta2 receptor (ADRB2) small molecule agonists, cell-based qHTS assay (AID 1963593); settings: CHO-ADRB2 cells, cAMP HTRF, 30 min; activation: at 92.4 µM (top of the series) unless noted;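 for activation: CHO cells stably overexpressing human ADRB2; % is set by controls: 0 for no effect and ±100 for the full control effect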
# Summary of the method: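 CHO cells stably over-expressing ADRB2 were plated overnight at 37C, then dosed with compounds plus a stimulation mix containing 100uM IBMX and 25uM Ro-20-1724 for 0.5hr at room temperature. cAMP was measured by HTRF competition, 1hr.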
# [7] = biological target: D(2) dopamine receptor (Homo sapiens) (UniProt P14416); assay: Dopamine D2 receptor (DRD2) small molecule antagonists, cell-based qHTS assay (AID 1963595; active = well fitted inhibition curve with a large enough effect in the signal ratio in the repeat runs, with a control signal flat; inconclusive = weak or mixed curves, or effect the other way; the % refers to the signal ratio; for activity change, negative = inhibition: % is set by controls: 0 for no effect and ±100 for the full control effect); settings: HEK293-DRD2 cAMP HTRF antagonist mode; activity change, negative = inhibition: at 92.4 µM (top of the series) unless noted
# Summary of the method: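 HEK293 cells stably expressing DRD2, preincubated with 0.1 mM Ro20-1724 and compounds 10 min, were stimulated with 200 nM NKH477 plus 12 nM quinpirole for 30 min at room temperature; cAMP measured by HTRF (665/620 nm).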
# [8] = biological target: Muscarinic acetylcholine receptor M1 (Homo sapiens) (UniProt P11229); assay: Cholinergic receptor muscarinic 1 (CHRM1) small molecule antagonists, cell-based qHTS assay (AID 1963588); note: nearly all actives have a fitted effect of over 40% in size
# Summary of the method: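 Compounds were tested at 15 concentrations in three independent runs. Dye-loaded CHRM1-CHO cells were exposed 5 min at room temperature before stimulation by acetylcholine added at 50nM. Intracellular calcium was read kinetically on FDSS for 3 min.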
# [9] = cAMP Responsive Elements (CRE) small molecule agonists, cell-based qHTS assay (AID 1963590); settings: CRE-bla HEK293T, beta-lactamase FRET ratio, 3 h; activation: at 92.4 µM (top of the series) unless noted
# Summary of the method: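 Agonist mode: compound added to CRE-bla HEK 293T cells (2,000/well, 18 h after plating) for 3 h at 37 C/5% CO2. Reporter activity detected via FRET beta-lactamase substrate, 2 h room-temperature loading.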
# [10] = cAMP Responsive Elements (CRE) small molecule antagonists, cell-based qHTS assay (AID 1963591; active = well fitted inhibition curve with a large enough effect in the signal ratio in the repeat runs, not every such curve was filed as active; inconclusive = weak or mixed curves, or effect the other way; the % refers to the signal ratio); settings: CRE-bla HEK293T, beta-lactamase FRET ratio; activity change, negative = inhibition: at 92.4 µM (top of the series) unless noted
# Summary of the method: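 Antagonist mode: compounds are added alongside the adenylyl cyclase activator NKH477 (0.25 uM final) to CRE-bla HEK293T cells for 3 h. LiveBLAzer FRET substrate, 2 h at room temperature, reports bla expression.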
# Potency is the fitted concentration of half-maximal effect.
smiles,measurement,setting,value
CCOC(=O)CC1(C)OCC(C)O1 (stereo not drawn),Potency,[1],"inconclusive: 51.3 µM [cytotoxic, single point]"
CC1=C(C=O)C(C)(C)CCC1,Potency,[1],inactive
Cc1ccc(OC(=O)CC(C)C)cc1,Potency,[1],"inconclusive: 18.2 µM [rising, partial curve, poor fit]"
C=C(C)C(=O)OCCCC,Potency,[1],"inconclusive: 18.6 µM [rising, single point]"
CCOC(C)OCC,Potency,[1],"inconclusive: 15.8 µM [rising, full curve, poor fit]"
C=CCSSCCC,Potency,[1],"inconclusive: 4.06 µM [cytotoxic, single point]"
C[Si](C)(C)N[Si](C)(C)C,Potency,[1],inactive
Cc1c(I)c(=O)n(-c2ccccc2)n1C,Potency,[1],inactive
COC(=O)c1ccccc1C,Potency,[1],inactive
CCc1cc(Cl)c(OC)c(C(=O)NC[C@@H]2CCCN2CC)c1O,Potency,[1],"inconclusive: 12.6 µM [rising, full curve, poor fit]"
same,Potency,[2],inactive
same,Potency,[3],"inconclusive: 11.6 µM [inhibitor, full curve, poor fit]"
same,Potency,[4],"inconclusive: 23.9 µM [activator, partial curve, poor fit]"
same,Potency,[5],"inconclusive: 33.5 µM [inhibitor, single point]"
same,activation,[6],inconclusive: -37.8% [at 42.5 µM]
same,Potency,[7],active: 0.0033 µM
O=C1NCN(c2ccccc2)C12CCN(CCCC(c1ccc(F)cc1)c1ccc(F)cc1)CC2,Potency,[1],"inconclusive: 22.3 µM [cytotoxic, single point]"
same,Potency,[2],"inconclusive: 7.93 µM [rising, single point]"
same,Potency,[3],active: 0.0516 µM
same,Potency,[8],"inconclusive: 8.18 µM [inhibitor, full curve]"
same,Potency,[9],inconclusive: 33.5 µM [fluorescent]
same,Potency,[10],inconclusive: 33.5 µM [single point]
same,Potency,[5],active: 23.7 µM
same,Potency,[6],"inconclusive: 23.7 µM [inhibitor, partial curve]"
same,Potency,[7],active: 0.0335 µM
O=S(=O)(O)SSS(=O)(=O)O,Potency,[1],inactive
CCNC(=O)N1CCN(CCCC(c2ccc(F)cc2)c2ccc(F)cc2)CC1,Potency,[1],inactive
same,Potency,[2],"inconclusive: 1.41 µM [rising, partial curve, poor fit]"
same,Potency,[3],active: 0.23 µM
same,Potency,[8],"inconclusive: 5.16 µM [inhibitor, full curve]"
same,Potency,[10],"inconclusive: 11.9 µM [activator, partial curve, poor fit]"
same,Potency,[6],"inconclusive: 13.3 µM [inhibitor, single point]"
same,"activity change, negative = inhibition",[7],inconclusive: -26.9% [at 42.5 µM]

# Exported bar-delimited: entries from further up
smiles | measurement | setting | value
CCNC(=O)N1CCN(CCCC(c2ccc(F)cc2)c2ccc(F)cc2)CC1 | Potency | [3] | active: 0.23 µM
same | Potency | [8] | inconclusive: 5.16 µM [inhibitor, full curve]
